Source: publication PMC10081216
These are yes or no findings as the source states them, for the method shown. In cells and extracts the contact can be indirect. A yes stands for co-enrichment or nearness to the bait. Other partners may have been found.

Target: BirA*-DUX (full-length mouse DUX with BirA* fused to the N-terminus), in mESCs (mouse)
Assay: proximity labelling; BioID: BirA*-DUX (full-length) in mESCs against unfused BirA* alone in 2C-like mESCs; clonal stable lines, 12hr with 0.25 μg/mL doxycycline and 5μM biotin (methods: 0.5 μM biotin, 18 hours); streptavidin pulldown, LC MS/MS; DESeq2 and SAINTexpress

binding: binds
B1: ZSCAN4D, endogenous in 2C-like mESCs (protein, UniProt A7KBS4 1-506)
chain: MASQQAPAKDLQTNNLEFTPSHSSGVQWVEDISNSPSAQLNFSPSNNGCWATQELQSLWKMFNSWLQPEKQTKEQMISQLVLEQFLLIGHCKDKYALTEKWKASGSDMRRFMESLTDECLKPPVMVHVSMQGQEALFSENMPLKEVIKLLKQQQSATRPTPDNEQMPVDTTQDRLLATGQENSENECNNSCNATEANVGESCSGNEMDSLLIIQKEQYPEHEEGNVVFQFPLDARRASQGNSSHHVDFRSAPTPADVPMEEQPKDLSRENISEDKNNCYNTSRNAATQVYRSDNIPRKKTDSLSINKRIYHSEPEEGDIPYGVPQDSTRASQGTSTCLQESLGECFSEKDPRELPGLESRQEEPISDPVFLGKDHEANLPCESHQKRFRRDAKLFKCEECSRMFKHARSLSSHQRTHLNKKSELLCVTCQKMFKRVSDRRTHEIIHMPEKPFKCSTCEKSFSHKTNLKSHEMIHTGEMPYVCSLCSRRFRQSSTYHRHLRNYHRSD
